Some results were stated once for a whole list of compounds, not compound by compound. [FANA-N] = 2'-fluoro-arabino (N: the base)
Assay: Stability analysis in human liver microsomes (HLM)
Settings: 0.5 mg/mL HLM, 37° C.

Substance: 2′-fluoro-arabino nucleic acid (AAAACCCACACCACCA; all [FANA-N], backbone and methylation of C not given here)
- t1/2 in human liver microsomes: < 3 h

Reference: patent US9765328B2, “Nuclease-resistant DNA analogues” (Arizona Board of Regents on Behalf of Arizona State …, priority 2014, dated 2017)
